Experimental data as given in patent publication US20260000764A1 (CITY OF HOPE, published 2026).
These are yes or no findings as the source states them, for the method shown. Some results given as binding are weak or reduced against the parent protein; the word gives no strength. Tags and fused reporters may be left off the sequences shown.

Protein sequences, listed by entry. Tags and fused reporters are not part of them. Lines headed by an entry give the natural chain unless they say otherwise; changes in a name come on top.
UniProt P35225: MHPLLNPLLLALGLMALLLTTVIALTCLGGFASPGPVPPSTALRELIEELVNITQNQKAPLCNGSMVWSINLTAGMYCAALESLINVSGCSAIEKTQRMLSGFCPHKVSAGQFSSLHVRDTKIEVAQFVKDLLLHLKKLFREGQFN

Legend:
[1] = target: T1, Biotinylated recombinant human IL-13Rα2 ectodomain with C-terminal biotin acceptor peptide and hexahistidine tag (human) (UniProt Q14627); assay: yeast display, flow cytometry with biotinylated receptor and streptavidin-Alexa-647
T1 sequence (chain, biotin on the biotin acceptor peptide (coexpressed with BirA ligase)): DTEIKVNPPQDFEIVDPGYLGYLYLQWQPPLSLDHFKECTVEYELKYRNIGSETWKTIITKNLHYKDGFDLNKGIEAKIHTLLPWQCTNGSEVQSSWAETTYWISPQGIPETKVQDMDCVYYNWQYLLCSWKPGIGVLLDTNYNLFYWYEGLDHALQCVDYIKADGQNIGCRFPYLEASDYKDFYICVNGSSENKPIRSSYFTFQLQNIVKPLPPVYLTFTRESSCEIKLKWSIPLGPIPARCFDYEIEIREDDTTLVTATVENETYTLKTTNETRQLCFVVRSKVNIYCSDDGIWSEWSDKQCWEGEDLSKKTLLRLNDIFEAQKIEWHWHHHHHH

[2] = target: T1, Biotinylated recombinant human IL-13Rα2 ectodomain with C-terminal biotin acceptor peptide and hexahistidine tag (human); assay: yeast display, flow cytometry (FIG. 1B legend)

Row | Substance | binding [1] | binding [2]
1 | IL13 C4 displayed on the surface of yeast (from UniProt P35225 35-146) (ligand) | binds | binds
2 | IL13 D7 displayed on the surface of yeast (from UniProt P35225 35-146) (ligand) | binds | binds
